From PMC5302063, “In vivo mapping of a dynamic ribonucleoprotein granule interactome in early Drosophila embryos” (FEBS Open Bio, 2016)

Sequences of proteins named here, by UniProt entry; tags and fusion partners are left off.
UniProt P25823: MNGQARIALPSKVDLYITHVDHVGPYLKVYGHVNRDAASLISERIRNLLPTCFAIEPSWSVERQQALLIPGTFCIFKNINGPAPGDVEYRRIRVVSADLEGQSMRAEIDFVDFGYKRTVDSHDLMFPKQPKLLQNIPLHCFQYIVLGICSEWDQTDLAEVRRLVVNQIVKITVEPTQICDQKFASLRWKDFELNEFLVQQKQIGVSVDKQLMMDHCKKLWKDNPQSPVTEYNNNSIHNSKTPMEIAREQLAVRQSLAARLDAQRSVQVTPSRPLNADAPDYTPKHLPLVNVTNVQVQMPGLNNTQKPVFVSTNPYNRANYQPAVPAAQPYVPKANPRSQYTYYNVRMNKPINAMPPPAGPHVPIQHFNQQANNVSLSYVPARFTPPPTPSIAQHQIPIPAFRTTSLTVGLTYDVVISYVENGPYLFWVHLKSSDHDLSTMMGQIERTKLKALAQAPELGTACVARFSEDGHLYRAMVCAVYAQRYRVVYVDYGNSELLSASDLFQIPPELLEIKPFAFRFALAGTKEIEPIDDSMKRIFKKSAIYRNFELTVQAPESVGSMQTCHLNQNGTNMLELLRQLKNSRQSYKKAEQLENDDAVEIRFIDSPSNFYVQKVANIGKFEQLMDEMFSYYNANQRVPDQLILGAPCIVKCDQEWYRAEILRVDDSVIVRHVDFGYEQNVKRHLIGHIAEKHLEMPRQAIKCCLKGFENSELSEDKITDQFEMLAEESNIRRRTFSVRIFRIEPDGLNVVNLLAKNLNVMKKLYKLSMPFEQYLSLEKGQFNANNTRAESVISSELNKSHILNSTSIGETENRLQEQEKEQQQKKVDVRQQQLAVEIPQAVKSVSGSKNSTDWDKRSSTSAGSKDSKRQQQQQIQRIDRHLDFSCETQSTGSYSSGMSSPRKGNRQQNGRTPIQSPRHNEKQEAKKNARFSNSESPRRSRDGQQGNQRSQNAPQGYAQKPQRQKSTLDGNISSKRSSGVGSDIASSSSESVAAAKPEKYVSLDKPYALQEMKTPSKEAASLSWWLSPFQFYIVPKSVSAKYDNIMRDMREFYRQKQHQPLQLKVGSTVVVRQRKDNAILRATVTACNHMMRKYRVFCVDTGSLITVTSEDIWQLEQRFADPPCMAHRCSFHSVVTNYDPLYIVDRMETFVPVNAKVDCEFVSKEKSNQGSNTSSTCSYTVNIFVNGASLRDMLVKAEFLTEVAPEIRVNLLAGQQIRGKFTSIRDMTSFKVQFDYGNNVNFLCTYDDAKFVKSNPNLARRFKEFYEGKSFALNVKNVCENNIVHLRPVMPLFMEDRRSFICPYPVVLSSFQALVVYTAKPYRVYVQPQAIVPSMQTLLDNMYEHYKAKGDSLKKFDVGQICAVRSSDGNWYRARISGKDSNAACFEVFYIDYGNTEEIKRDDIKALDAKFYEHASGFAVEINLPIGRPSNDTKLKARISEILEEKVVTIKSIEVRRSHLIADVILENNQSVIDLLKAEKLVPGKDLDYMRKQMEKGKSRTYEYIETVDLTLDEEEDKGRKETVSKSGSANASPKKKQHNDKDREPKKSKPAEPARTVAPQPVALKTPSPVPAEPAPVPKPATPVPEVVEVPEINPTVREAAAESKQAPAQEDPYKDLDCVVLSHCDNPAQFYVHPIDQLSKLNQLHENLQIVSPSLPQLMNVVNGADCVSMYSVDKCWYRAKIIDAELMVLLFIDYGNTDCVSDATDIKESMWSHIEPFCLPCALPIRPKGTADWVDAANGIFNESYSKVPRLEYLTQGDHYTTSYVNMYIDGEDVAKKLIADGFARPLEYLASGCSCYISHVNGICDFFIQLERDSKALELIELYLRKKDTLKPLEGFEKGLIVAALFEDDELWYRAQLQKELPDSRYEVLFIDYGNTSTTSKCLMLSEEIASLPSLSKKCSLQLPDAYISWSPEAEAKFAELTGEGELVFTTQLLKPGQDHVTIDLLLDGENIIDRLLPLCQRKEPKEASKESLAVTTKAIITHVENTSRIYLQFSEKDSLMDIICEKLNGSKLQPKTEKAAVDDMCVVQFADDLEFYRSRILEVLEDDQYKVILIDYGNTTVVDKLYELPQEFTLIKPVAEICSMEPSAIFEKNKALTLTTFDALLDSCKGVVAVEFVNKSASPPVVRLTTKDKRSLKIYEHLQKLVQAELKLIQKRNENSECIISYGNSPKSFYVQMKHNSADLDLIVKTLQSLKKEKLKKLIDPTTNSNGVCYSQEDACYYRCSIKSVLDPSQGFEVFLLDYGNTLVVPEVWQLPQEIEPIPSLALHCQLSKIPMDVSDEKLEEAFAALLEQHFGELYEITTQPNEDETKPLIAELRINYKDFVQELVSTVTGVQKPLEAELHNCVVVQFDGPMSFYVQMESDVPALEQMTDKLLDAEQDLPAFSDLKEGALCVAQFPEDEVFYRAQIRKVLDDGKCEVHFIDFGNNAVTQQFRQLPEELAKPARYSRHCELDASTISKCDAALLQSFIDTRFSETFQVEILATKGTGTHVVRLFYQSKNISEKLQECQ
UniProt P15007: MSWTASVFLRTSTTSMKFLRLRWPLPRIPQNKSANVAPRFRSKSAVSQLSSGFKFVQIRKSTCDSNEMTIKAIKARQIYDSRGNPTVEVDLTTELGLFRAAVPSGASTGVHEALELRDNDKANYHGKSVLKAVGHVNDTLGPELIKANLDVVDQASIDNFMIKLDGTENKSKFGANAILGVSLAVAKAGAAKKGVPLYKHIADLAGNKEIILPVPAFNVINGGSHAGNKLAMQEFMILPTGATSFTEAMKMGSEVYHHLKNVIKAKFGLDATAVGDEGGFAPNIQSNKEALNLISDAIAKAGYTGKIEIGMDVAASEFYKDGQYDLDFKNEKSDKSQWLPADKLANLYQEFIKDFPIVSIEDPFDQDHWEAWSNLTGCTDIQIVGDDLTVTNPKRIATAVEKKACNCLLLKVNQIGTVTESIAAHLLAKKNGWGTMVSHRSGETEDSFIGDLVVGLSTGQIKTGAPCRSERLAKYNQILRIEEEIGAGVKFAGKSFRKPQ
UniProt O62619: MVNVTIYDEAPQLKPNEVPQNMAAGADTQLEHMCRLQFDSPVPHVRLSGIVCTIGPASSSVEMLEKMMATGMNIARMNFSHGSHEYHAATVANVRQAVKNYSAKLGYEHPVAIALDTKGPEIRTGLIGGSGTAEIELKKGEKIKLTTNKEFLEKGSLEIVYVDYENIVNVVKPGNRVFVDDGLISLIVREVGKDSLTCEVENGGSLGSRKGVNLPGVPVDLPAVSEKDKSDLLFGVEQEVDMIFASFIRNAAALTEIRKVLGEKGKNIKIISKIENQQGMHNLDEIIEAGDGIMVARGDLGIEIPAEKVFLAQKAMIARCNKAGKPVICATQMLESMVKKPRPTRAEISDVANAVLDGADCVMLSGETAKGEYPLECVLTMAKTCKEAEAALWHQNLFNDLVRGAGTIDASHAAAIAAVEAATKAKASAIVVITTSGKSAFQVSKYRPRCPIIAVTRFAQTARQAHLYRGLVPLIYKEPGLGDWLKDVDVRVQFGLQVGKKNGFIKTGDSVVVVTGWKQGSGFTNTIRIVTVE
UniProt Q02748: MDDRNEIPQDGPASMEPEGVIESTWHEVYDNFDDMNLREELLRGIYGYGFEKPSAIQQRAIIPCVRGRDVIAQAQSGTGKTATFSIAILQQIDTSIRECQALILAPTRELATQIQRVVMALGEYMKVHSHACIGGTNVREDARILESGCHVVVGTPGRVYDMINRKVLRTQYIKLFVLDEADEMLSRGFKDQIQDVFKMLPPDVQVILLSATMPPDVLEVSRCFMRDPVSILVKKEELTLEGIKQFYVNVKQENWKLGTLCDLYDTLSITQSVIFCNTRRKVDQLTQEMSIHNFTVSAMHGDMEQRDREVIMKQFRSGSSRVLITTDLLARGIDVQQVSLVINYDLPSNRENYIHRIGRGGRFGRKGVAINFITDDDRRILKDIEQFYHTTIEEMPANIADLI
UniProt P07487: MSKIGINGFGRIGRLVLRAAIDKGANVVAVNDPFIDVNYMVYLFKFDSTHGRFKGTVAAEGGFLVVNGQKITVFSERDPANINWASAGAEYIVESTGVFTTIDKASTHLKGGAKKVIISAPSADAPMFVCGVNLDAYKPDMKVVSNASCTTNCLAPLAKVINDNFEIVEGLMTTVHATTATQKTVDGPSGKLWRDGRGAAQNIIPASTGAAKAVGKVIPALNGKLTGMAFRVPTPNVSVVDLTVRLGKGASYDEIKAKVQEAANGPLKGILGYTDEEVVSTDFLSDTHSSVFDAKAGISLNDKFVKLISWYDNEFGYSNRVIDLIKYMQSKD
UniProt P17210: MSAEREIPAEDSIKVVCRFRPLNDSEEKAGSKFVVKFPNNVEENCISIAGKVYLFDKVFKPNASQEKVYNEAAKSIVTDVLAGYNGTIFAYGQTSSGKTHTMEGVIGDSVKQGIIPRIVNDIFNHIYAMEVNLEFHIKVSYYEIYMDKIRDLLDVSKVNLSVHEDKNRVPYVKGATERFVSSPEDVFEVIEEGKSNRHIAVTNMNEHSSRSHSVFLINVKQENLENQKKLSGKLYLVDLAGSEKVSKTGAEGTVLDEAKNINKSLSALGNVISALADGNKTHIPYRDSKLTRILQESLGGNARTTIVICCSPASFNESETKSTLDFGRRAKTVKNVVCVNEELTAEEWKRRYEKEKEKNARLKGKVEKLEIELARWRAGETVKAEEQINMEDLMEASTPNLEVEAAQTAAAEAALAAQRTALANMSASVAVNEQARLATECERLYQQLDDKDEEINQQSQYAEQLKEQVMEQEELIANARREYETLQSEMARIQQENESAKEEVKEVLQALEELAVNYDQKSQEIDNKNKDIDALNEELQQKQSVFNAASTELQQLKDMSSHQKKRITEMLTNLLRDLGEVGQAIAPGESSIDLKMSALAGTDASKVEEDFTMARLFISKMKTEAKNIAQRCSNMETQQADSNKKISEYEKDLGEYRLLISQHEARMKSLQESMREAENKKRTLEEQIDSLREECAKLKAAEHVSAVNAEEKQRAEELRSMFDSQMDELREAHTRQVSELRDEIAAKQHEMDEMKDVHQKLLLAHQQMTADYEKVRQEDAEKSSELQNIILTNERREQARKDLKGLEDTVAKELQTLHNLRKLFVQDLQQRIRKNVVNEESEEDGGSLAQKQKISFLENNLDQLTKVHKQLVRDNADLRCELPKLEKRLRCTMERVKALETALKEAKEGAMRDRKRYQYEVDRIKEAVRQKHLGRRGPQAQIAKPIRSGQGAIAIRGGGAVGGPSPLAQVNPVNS

Assays:
[1] = molecular target: T1, functional GFP-tagged Aubergine (Drosophila) (UniProt O76922); assay: cross-linking + affinity purification with mass spectrometry; GFP-Aub-expressing embryo lysates crosslinked in vitro with BM(PEG)3 (300 ug/mL); immunoprecipitation in PBS with 0.5 M urea, 0.01% SDS, 2% Triton X-100, 10% glycerol; gel-purified; mass spectrometry
T1 sequence: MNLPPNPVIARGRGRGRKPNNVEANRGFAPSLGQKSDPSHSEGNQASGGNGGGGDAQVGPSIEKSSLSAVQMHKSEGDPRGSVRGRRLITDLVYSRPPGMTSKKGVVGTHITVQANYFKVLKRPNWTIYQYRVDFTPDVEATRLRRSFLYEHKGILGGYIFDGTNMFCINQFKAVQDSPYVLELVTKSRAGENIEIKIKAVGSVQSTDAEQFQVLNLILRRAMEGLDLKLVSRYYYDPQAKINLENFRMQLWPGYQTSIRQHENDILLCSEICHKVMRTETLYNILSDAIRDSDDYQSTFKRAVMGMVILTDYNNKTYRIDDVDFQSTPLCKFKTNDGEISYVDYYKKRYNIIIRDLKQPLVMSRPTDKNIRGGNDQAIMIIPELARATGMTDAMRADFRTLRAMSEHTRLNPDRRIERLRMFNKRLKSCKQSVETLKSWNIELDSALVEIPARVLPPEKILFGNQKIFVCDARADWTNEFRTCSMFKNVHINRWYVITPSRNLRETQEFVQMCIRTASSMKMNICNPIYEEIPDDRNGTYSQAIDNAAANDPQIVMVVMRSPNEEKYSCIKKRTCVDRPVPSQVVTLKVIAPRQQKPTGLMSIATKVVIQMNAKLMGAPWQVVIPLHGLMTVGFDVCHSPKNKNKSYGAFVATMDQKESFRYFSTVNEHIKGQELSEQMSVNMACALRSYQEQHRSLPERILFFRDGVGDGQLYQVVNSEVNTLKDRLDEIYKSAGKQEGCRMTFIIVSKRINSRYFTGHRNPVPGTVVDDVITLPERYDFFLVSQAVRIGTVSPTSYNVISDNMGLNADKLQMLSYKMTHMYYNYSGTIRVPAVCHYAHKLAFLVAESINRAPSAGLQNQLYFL

[2] = molecular target: functional full-length HA-tagged Tudor (Drosophila) (UniProt P25823); assay: cross-linking + affinity purification with mass spectrometry; in vivo crosslinking of 0-1 h embryos expressing HA-Tud or GFP-Aub with 0.2% formaldehyde (10 min); immunoprecipitation on anti-HA or anti-GFP agarose beads in 0.5 M urea, 0.01% SDS, 2% Triton X-100; washes with 1 M NaCl, 1% IGEPAL …; crosslinked complexes purified on SDS/PAGE step gels; LC-MS/MS; HA-tagged GFP as negative control
[3] = molecular target: T1, functional GFP-tagged Aubergine (Drosophila); assay: as above

Measured: binding

Enolase (from UniProt P15007 1-500) (enzyme)
binds: all assays above

Pyruvate kinase (from UniProt O62619 1-533) (enzyme)
binds: all assays above

dynein heavy chain 64C (from UniProt P37276 1-4639)
binds: all assays above

eukaryotic translation initiation factor 4A (endogenous) (from UniProt Q02748 1-403) (enzyme)
binds: all assays above

glyceraldehyde-3-phosphate dehydrogenase 2 (from UniProt P07487 1-332) (enzyme)
binds: all assays above

kinesin heavy chain (from UniProt P17210 1-975)
binds: all assays above

B1: maternal expression at 31B (enzyme, UniProt P23128 1-459)
chain: MMTEKLNSGHTNLTSKGIINDLQIAGNTSDDMGWKSKLKLPPKDNRFKTTDVTDTRGNEFEEFCLKRELLMGIFEKGWERPSPIQEAAIPIALSGKDVLARAKNGTGKTGAYCIPVLEQIDPTKDYIQALVMVPTRELALQTSQICIELAKHLDIRVMVTTGGTILKDDILRIYQKVQLIIATPGRILDLMDKKVADMSHCRILVLDEADKLLSLDFQGMLDHVILKLPKDPQILLFSATFPLTVKNFMEKHLREPYEINLMEELTLKGVTQYYAFVQERQKVHCLNTLFSKLQINQSIIFCNSTQRVELLAKKITELGYCCYYIHAKMAQAHRNRVFHDFRQGLCRNLVCSDLFTRGIDVQAVNVVINFDFPRMAETYLHRIGRSGRFGHLGIAINLITYEDRFDLHRIEKELGTEIKPIPKVIDPALYVANVGASVGDTCNNSDLNNSANEEGNVSK
binds: all assays above

No constants are given. Whether binding was seen depends on the method and setting. In cells and extracts the contact can be indirect. Here binding means that the protein was enriched with, or labelled near, the bait; the list need not be complete. For part of these data: Where a sequence is shown, tags or fusion partners need not be part of it.
